Measured values: patent US20260226131A1 (SHANGHAI INSTITUTE OF MATERIA MEDICA CHINESE ACADEMY OF …, published 2026)
No constants are given. Whether binding was seen depends on the method and setting. Some binding calls cover weakened binding; strength is not graded here. Where a sequence is shown, tags or fusion partners need not be part of it.

By UniProt entry, the sequences of proteins in these tests, tags left out. Residues count along the entry.
UniProt P08069, residues 31-932: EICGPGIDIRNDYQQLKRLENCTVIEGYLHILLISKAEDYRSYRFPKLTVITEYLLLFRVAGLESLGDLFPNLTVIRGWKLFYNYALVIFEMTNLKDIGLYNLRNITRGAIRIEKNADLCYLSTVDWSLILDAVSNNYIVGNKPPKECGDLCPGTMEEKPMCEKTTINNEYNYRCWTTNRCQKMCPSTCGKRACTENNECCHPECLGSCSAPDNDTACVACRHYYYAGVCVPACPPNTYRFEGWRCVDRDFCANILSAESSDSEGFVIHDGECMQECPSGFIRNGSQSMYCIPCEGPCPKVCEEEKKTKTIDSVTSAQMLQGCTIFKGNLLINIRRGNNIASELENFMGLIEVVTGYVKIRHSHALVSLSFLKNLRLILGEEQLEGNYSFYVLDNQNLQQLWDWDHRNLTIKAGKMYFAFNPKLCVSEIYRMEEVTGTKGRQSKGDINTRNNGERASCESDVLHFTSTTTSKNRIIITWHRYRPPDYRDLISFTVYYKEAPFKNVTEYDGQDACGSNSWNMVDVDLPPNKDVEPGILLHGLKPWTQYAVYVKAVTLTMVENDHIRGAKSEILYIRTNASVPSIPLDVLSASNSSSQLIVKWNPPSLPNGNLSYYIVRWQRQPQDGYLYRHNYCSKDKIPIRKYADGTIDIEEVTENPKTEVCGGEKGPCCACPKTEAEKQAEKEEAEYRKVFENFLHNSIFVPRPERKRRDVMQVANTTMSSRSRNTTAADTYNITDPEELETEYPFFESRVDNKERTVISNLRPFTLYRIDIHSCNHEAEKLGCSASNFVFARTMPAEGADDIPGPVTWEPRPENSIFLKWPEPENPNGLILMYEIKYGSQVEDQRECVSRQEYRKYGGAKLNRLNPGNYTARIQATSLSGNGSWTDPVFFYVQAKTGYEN

Target: IGF-1R-His tag (Sino Biological), human insulin-like growth factor 1 receptor (human) (UniProt P08069)
Test: BLI (Octet), IGF-1R-His captured on Ni-NTA probe

B1: Insulin-Fc fusion protein of Example 1 (B27E+A3-A+A21G) (Fc fusion)
chain: FVNQHLCGSHLVEALYLVCGERGFFYEPKTGGVGGGGIAEQCCTSICSLYQLENYCGGGGGSGGGGSGGGGSGGGGSERKSSVESPPSPAPPVAGPSVFLFPPKPKDTLMISRTPEVTCVVVDVSQEDPEVQFNWYVDGVEVHNAKTKPREEQFNSTFRVVSVLTVLHQDWLNGKEYKCKVSNKGLPSSIEKTISKTKGQPREPQVYTLPPSREEMTKNQVSLTCLVKGFYPSDIAVEWESNGQPENNYKTTPPMLDSDGSFFLYSKLTVDKSRWQQGNVFSCSVMHEALHNHYTQKSLSLSLG
  binding: binds
